Measurements: PubChem BioAssay AID720591 (Broad Institute, 2013)
Hit rate of the full screen: of about 1,200 compounds, about 60 (5%) were called active. Not shown: some 1% with an inconclusive outcome.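 How the source made its calls: active means Decreasing signal and fitted IC50 at most twice the top valid tested dose; inconclusive means Bad fit or a level curve showing 30 to 70% inhibition; inactive means the rest.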 This is one part of the list. Results with a measured potency or affinity are listed apart. Where a SMILES comes first, the peptide text is derived from it. The star is where a group is joined. Tos = Cc1ccc(S(=O)(=O)*)cc1

By UniProt entry, the sequences of proteins in these tests, tags left out. Where a name states a change or a piece, a line headed by the entry shows the natural chain unless it says otherwise.
UniProt Q9NXA8: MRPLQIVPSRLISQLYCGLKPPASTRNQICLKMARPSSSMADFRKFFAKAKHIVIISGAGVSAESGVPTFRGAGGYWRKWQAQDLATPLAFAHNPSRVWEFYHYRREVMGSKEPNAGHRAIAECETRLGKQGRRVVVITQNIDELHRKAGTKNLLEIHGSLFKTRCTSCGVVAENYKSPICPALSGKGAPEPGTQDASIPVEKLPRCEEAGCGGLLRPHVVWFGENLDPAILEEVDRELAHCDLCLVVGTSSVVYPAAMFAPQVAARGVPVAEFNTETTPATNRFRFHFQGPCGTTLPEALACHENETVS

These molecules were tested against NAD-dependent protein deacylase sirtuin-5, mitochondrial (Homo sapiens) (UniProt Q9NXA8) (assay: sirtuin-5 deacylation blockers, concentration series – biochemical, fluorescence imaging, cherry-pick, set 5, dose response (AID 720591;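 further: 0% = median of neutral control wells and -100% = median of positive control wells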)). Details: Purified SirT5, succinyl-peptide AMC, trypsin-coupled fluorescence; at 15 µM (top of the series) unless noted.

Activity change, negative = inhibition, inactive:
CC1CN(Cc2ccccc2)c2nc3c(c(=O)n(CC(=O)O)c(=O)n3C)n2C1 (centres undefined) 28.5%
CCCNC(=O)CC1C(=O)N(Cc2ccccc2)C(C)c2nc3ccccc3n21 (centres undefined) -35.5%
CCOC(=O)c1ccc(S(=O)(=O)NC2CCC(C)CC2)cc1 (centres undefined) 9.58%
Cc1cccc(COC[C@H](Cc2ccccc2)N2CCN(C(=O)c3cc(Cl)cc(Cl)c3)CCC2=O)c1 -29.7%
Cc1ccc(CNC(=O)C2CCCN(S(=O)(=O)N3CC(C)CC(C)C3)C2)cc1 (centres undefined) -20.4%
CCN(CCO)c1nc(N2CCCCC2)c2cnn(C)c2n1 4.9%
CC(C)(C)OC(=O)N(CCc1ccccc1)Cc1ccc(OCc2cccc(NC(=O)C3CC3)c2)cc1 11.2%
O=C(CSc1ccccc1Cl)N1CCOCC1 -29.6%
COc1ccc(NC(=O)C2CCCNC2=O)cc1 (centres undefined) -18.6%
COc1ccccc1S(=O)(=O)N(C)C[C@@H]1Oc2cc(C#CCC(C)C)ccc2S(=O)(=O)N([C@H](C)CO)C[C@@H]1C 4.67%
COc1ccc(N2CC(C(=O)Nc3nc4ccc(OC)cc4s3)CC2=O)cc1 (centres undefined) -3.03%
CN1CCN(c2nc3c(c(=O)[nH]c(=O)n3C)n2Cc2ccccc2)CC1 19.7%
CNC(=O)CSc1nnc(-c2ccco2)n1-c1cccc(OC)c1 0.832%
Cn1c(=O)[nH]c(=O)c2c1nc(N1CCNCC1)n2Cc1ccccc1 15.6%
OC[C@@H]1CN(Cc2cccs2)C[C@H](n2cnc3c(Nc4ccccc4)ncnc32)O1 1.28%
Cc1ccc(S(=O)(=O)N(C)CCCC(=O)NC(C)(C)CO)cc1 -1.37%
COc1ccc(NC(=O)N(C)C[C@H]2Oc3ccc(NS(=O)(=O)c4ccc(F)cc4)cc3C(=O)N([C@H](C)CO)C[C@@H]2C)cc1 -7.44%
C[C@]12c3[nH]c4ccc(Cl)cc4c3CCN1C(=O)[C@@H](CC(=O)NCc1cccc(C(F)(F)F)c1)C[C@@H]2C(=O)N1CCOCC1 -7.88%
CCc1nnc(NC(=O)CCC(=O)N2CCN(c3cc(C)ccc3C)CC2)s1 8.84%
COc1cccc(CN2CC(C(=O)N(C)CC3CCOCC3)CCC2=O)c1 (centres undefined) -21.3%
CCOc1ccc(OCC)c(NC(=O)C2CCCN(C(=O)c3ccc(Cl)cc3)C2)c1 (centres undefined) -9.86%
C[C@H](NC(=O)c1cc2c([nH]c3ccccc32)c(-c2ccccc2)n1)C(=O)O 32.4%
Cc1ccccc1CNC(=O)c1ccccc1NS(C)(=O)=O -18.2%
COc1cc(CN(C(=O)c2ccco2)c2ccc(C)cc2)ccc1O -4%
COc1ccc(Cl)cc1NC(=O)c1cccc(NC(=O)CCC(=O)O)c1 8.04%
CC1(C)CC(NC(=O)C2CCC(=O)N(C3CC3)C2)CC(C)(C)C1 (centres undefined) -4.64%
C[C@H]1CN=C(Nc2ccccc2)N1CCC1CCCCC1 12.8%
COc1cccc(CN2CCN(CCCc3ccccc3)C(CCO)C2)c1OC (centres undefined) -16.8%
Cc1n[nH]c(=O)c2c1nnn2Cc1ccccc1Cl -22.4%
O=C(NCc1ccc(F)cc1)C1CC(=O)N(C2CCCCC2)C1 (centres undefined) -24.7%
CCCC(C)C(=O)Nc1nc(C)c(-c2csc(Nc3ccc(Cl)cc3)n2)s1 (centres undefined) 20.5%
COCCCNS(=O)(=O)c1cc2c3c(c1)C(C)C(=O)N3CCC2 (centres undefined) -8.8%
CCOC(=O)C1(CCOc2ccccc2)CCN(Cc2ccc(OCCO)cc2)CC1 19.7%
CCCN1CCC(=O)N([C@H](CSc2ccc(OC)cc2)c2ccccc2)CC1 -32.1%
C[C@H](CO)N1C[C@H](C)[C@@H](CN(C)C(=O)c2ccc(N3CCN(C)CC3)cc2)OCc2cnnn2CCCC1=O 4.8%
O=C(Nc1ccnn1C1CCN(C(=O)c2ccc(C(F)(F)F)cc2)CC1)C1CC1 -25.7%
O=C(NN1CC(=O)N(c2cc(Cl)cc(Cl)c2)CC1=O)c1sccc1Cl -1.22%
Cc1cnc(C(=O)OCC(=O)Nc2cccc(S(=O)(=O)N3CCCCC3)c2)cn1 -31%
COc1ccc2nc(SCC(=O)Nc3cc(C)on3)c(C#N)cc2c1 -13.2%
COc1cc(C(=O)NCC2(N(C)C)CCCCC2)ccc1OCc1ccccc1 5.49%
COc1ccc(-c2nc3c(c(SCC(=O)Nc4cccc(O)c4)n2)Cc2c(CO)cnc(C)c2O3)cc1 -31.7%
Cc1ccc(S(=O)(=O)N[C@@H](CO)C(=O)N[C@@H](Cc2ccc(O)cc2)C(=O)O)cc1 (Tos-Ser-Tyr-OH) -11.1%
CC(C)c1ccccc1NC(=O)c1cnccn1 -32.5%
Cc1cc(NC(=O)CCC(=O)N(Cc2ccccc2)C(C(=O)NC2CCCC2)c2ccc(C)o2)no1 (centres undefined) -32.3%
C#CCSc1cc(C(F)(F)F)nc(-c2ccccn2)n1 4.04%
CCN(c1ccccc1)S(=O)(=O)c1ccc(OC)c(NC(=O)Cc2ccc(OC)c(OC)c2)c1 -30.8%
O=C(c1cccc(F)c1)N1CCCC(C(=O)N2CCCCC2)C1 (centres undefined) -26.3%
O=C(Nc1ccccc1Cl)C1CC(=O)N(c2ccccc2)C1 (centres undefined) 10.1%
COc1ccc(Nc2c3c(nc4ccc(C)cc24)CCC3)cc1 2.04%
O=S1(=O)CC(N2CCN(CCO)CC2)CN1Cc1cn(Cc2cccc(C(F)(F)F)c2)nn1 (centres undefined) -10.6%
COCCCN1C(=O)C(CC(=O)NC(c2ccccc2)c2ccccc2)CC(C(=O)N2CCOCC2)=C1C (centres undefined) 47.8%
Cc1ccc(-c2ccc(CN3C(C)C(=O)N(Cc4cn(Cc5ccco5)nn4)CCS3(=O)=O)cc2)c(C)c1 (centres undefined) -8.96%
CCCCC(CC)C(=O)Oc1ccc(O)c(C(C)(C)C)c1 (centres undefined) 15.5%
Cc1ccc(S(=O)(=O)N(C)c2ccc(NS(C)(=O)=O)cc2)cc1 -2.72%
COc1ccc(S(=O)(=O)Nc2ccc3c(c2)C(=O)N([C@H](C)CO)C[C@@H](C)[C@@H](CN(C)S(=O)(=O)c2ccc(Cl)cc2)O3)cc1 9.78%
Cc1ccnc(NS(=O)(=O)c2ccc(NC(=O)Cc3ccc(F)cc3)cc2)n1 18%
COC1OC(c2ccccc2)=C(c2ccc(C(N)=O)cc2)c2ccc(F)cc21 (centres undefined) -11.9%
CCc1ccc(-c2cc(C)no2)cc1S(=O)(=O)Nc1cc(C)ccn1 -34%
C=CCNC(=O)COc1c(C)ccc(C)c1C 2.07%
COc1ccc([C@H]2N[C@]3(CCCN(Cc4ccc(C)cc4)C3=O)[C@H]3C(=O)N(C)C(=O)[C@@H]23)cc1 -11.2%
CCCCCN(C(=O)CCC(=O)OCC(=O)c1ccc(CCC)cc1)c1c(N)n(CCCC)c(=O)[nH]c1=O -27.7%
CCN(c1ccccc1)S(=O)(=O)c1ccc2[nH]c(=O)[nH]c2c1 5.81%
COCc1nc2ccccc2n1Cc1ccccc1C 22.3%
Cc1ccc(NC(=O)C2CCN(C(=O)c3ccco3)CC2)cc1 12%
Cc1csc(NC(=O)CSc2sc3c(O)cc(=O)[nH]c3c2C#N)n1 -33.2%
O=C(Nc1ccccc1Cl)c1sccc1-c1ccccc1 16.6%
Cc1ccc(-c2csc(NC(=O)Cn3[nH]c(=O)c4ccccc4c3=O)n2)cc1 -13.9%
C=CC[C@@H](CC(=O)N[C@H](CO)Cc1ccccc1)C(=O)N[C@@H](COC(=O)[C@@H](CC=C)CC(=O)OC(C)(C)C)Cc1ccccc1 25.4%
Cc1cc(C)c2c(CN3CCOCC3)cc(=O)oc2c1 2.2%
O=C1Nc2ccccc2C(=O)N2[C@H](c3ccc(F)cc3)[C@@H]3C(=O)N(Cc4ccccc4)C(=O)[C@@H]3[C@H]12 -12.5%
Cc1cccc(C(=O)NCc2nnc(SC(C)C(=O)Nc3nnc(C)s3)n2C)c1 (centres undefined) -0.024%
Cc1cc(C)cc(Cn2cc(CN3CC(N4CCN(CCO)CC4)CS3(=O)=O)nn2)c1 (centres undefined) -11.8%
Cc1ccc(CC(=O)Nc2ccc(C(=O)N3CCCCC3)cc2)cc1 -4.13%
CCCCN1CC(=O)N2[C@H](c3ccc(OC)cc3)[C@@H]3C(=O)N(CC)C(=O)[C@@H]3[C@]2(Cc2ccccc2)C1=O -22.5%
Cc1noc(C)c1S(=O)(=O)N(C)C[C@H]1Oc2ccc(NC(=O)C3CC3)cc2C(=O)N([C@H](C)CO)C[C@@H]1C -13.5%
COc1ccc(CN2CCCC(N3CCN(c4cccc(Cl)c4)CC3)C2)cc1OC (centres undefined) -1.42%
Cc1cccc2nc(CSc3ccc(Cl)cc3)cn12 36.8%
c1nc(N2CCOCC2)c2c3c(sc2n1)CCCC3 -20.7%
O=C(OCC(=O)N1CCCC1)c1cc(Br)ccc1Cl -18.6%
CCOC(=O)Cn1cc(C#N)c2cccc(CC)c21 1.89%
CCc1ccc(CN(C)CCc2ccccn2)cc1 4.63%
O=C(O)CCCC(=O)N1CCc2cc(S(=O)(=O)N3CCc4ccccc43)ccc21 -51.6%
CC1c2nc3ccccc3n2C(CC(=O)NCCCN2CCOCC2)C(=O)N1Cc1ccccc1 (centres undefined) 1.29%
COc1cccc(OCC(=O)Nc2ccccc2C(N)=O)c1 -30%

Four structures from above, sorted by formula weight, rising:
Activity change, negative = inhibition, inactive:
CCc1ccc(CN(C)CCc2ccccn2)cc1 4.63%
CCOC(=O)Cn1cc(C#N)c2cccc(CC)c21 1.89%
O=C(CSc1ccccc1Cl)N1CCOCC1 -29.6%
CCCNC(=O)CC1C(=O)N(Cc2ccccc2)C(C)c2nc3ccccc3n21 (centres undefined) -35.5%

In the list so far, 3 have a cyano group.
Activity change, negative = inhibition, inactive:
COc1ccc2nc(SCC(=O)Nc3cc(C)on3)c(C#N)cc2c1 -13.2%
Cc1csc(NC(=O)CSc2sc3c(O)cc(=O)[nH]c3c2C#N)n1 -33.2%
CCOC(=O)Cn1cc(C#N)c2cccc(CC)c21 1.89%
